# According to the supplement of paper PMC3334620:
# In all, about 33,000 sequences were measured (“E-score (-0.5 to 0.5)”: median about -0.0014, highest 2% from about 0.25 on). The list shows a part of the results.
# Biological target: T1, Cad1 (UniProt P24813)
# T1 sequence: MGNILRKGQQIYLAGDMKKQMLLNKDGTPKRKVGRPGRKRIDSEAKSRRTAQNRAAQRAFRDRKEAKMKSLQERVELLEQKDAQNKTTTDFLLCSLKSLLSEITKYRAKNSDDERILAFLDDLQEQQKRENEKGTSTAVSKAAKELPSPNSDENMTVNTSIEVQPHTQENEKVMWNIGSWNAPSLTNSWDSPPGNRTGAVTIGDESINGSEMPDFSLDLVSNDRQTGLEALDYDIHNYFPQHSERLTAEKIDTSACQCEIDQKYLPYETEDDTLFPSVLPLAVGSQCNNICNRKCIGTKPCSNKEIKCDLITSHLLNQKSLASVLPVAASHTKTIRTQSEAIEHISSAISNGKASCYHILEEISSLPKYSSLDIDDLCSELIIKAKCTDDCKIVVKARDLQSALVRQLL
# Experiment: PBM E-score (8-mer binding enrichment) (E-score (-0.5 to 0.5)); higher = stronger / more preferred TF binding
# Conditions: protein concentration: 100 nM; construct: GST-full length
# Method in brief: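 Bound GST-tagged yeast transcription factors, applied at about 100-200 nM to double-stranded universal all-10-mer Agilent arrays, were detected with fluorescent anti-GST. Scans were normalised with masliner. A modified Wilcoxon-Mann-Whitney statistic, the E-score, was assigned to each ungapped eight-base word pooled with its reverse complement by the Universal PBM Analysis Suite.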
row,Sequence,PBM E-score
1,ATTGCAAT,0.182
2,ATCGACAA,0.105
3,AGGATGGA,-0.166
4,AGTACCCC,-0.211
5,ATATTAGG,0.248
6,GGATAACA,0.0152
7,ACGTTCAA,0.0746
8,AGCATGTC,-0.127
9,GCCTATCC,-0.085
10,CCCTAGAG,-0.122
11,ATCAAAGA,0.0834
12,GATTCGGC,0.113
13,TAACGACA,0.0499
14,GTAGCTCA,-0.0109
15,AATCGAAC,0.0215
16,AGCCTGCG,-0.155
17,GAGTGGTA,-0.0468
18,GTCCCCAC,-0.344
19,ATGTCAAT,0.0742
20,ATCCCATC,-0.0629
21,ATTTGGGA,0.0242
22,ACGTGCCT,0.00963
23,GTTACAAC,0.126
24,ATCTTCGG,0.196
25,AAACTAAT,0.36

row,Sequence,PBM E-score
1,CGGACCCC,-0.206
2,ACATCAGC,-0.0424
3,GACTAGAA,0.0424
4,ATCGGCGG,0.12
5,CTTGGGTA,-0.0741
6,GGACTGCA,-0.026
7,GTATCAGA,-0.0422
8,CAGTTGTC,0.0955
9,TATAGGAA,0.127
10,GCCACTCA,0.0465
11,GACTCACC,-0.189
12,CTTCGAAC,0.159
13,CACAACGA,0.0531
14,CAAGGTGG,-0.0528
15,CGGTTTCA,0.0848
16,CGCTGCCC,-0.213
17,CCTTGTGA,0.00636
18,AAATCGCA,0.0759
19,AGCTAAGG,-0.145
20,ACCACCAC,0.143
21,AGAAATTC,0.13
22,AATTATTC,0.245
23,CGGGGTAG,-0.209
24,CAGTGCCG,0.00284
25,GCAGATTA,0.048

row,Sequence,PBM E-score
1,ATAACTGG,-0.00558
2,GAAGGAGA,-0.139
3,AAATCCAA,0.115
4,CAGAGAGA,-0.164
5,GGAGAACA,0.0538
6,CAAACCTG,0.0184
7,CTAGCAAG,-0.0274
8,ACAATCCG,0.115
9,GGTAAAAC,0.113
10,CACGTATC,0.0223
11,CAGGGTCA,-0.343
12,ATGGAGGA,-0.139
13,AGGGCGCA,-0.0246
14,CTGAGCGA,0.026
15,GAGGCCTA,0.0905
16,AGAGGAAA,0.106
17,CTGTAGAA,-0.134
18,AACTCCGA,0.0113
19,ACTAACAG,0.193
20,CCAATTAA,0.018
21,AAAAACGG,0.229
22,AGTGTTAA,0.255
23,GAGTCAGA,0.0308
24,CCGTTATA,0.11
25,ACACAGAG,0.0296

row,Sequence,PBM E-score
1,ACTGAGCC,-0.0187
2,AGGACAAT,0.192
3,ATGCATTA,0.265
4,GATAGCAA,0.0942
5,ACAGCCCG,-0.138
6,AAAACAGT,0.162
7,ATAGTCTC,0.042
8,AGTACGGA,-0.0405
9,ACTCAGAC,0.051
10,AAAGCTTT,0.235
11,AGTCTGAA,0.134
12,ACGCCTTG,-0.0703
13,AAAAGGCC,-0.139
14,AGAGAGAA,-0.0532
15,CTGATGGA,-0.0544
16,AATCTCTG,0.0651
17,CAATAAAA,0.0637
18,CCGGCTGC,-0.00441
19,ATCGAACG,-0.0756
20,AAATATGA,0.234
21,ATGACGCC,-0.27
22,ACCTACCT,-0.111
23,GGTGTCGA,0.104
24,CTGAGGAC,-0.0151
25,ACATCTGC,-0.0657

# As a short view, part of the list above:
row,Sequence,PBM E-score
25,ACACAGAG,0.0296
1,ACTGAGCC,-0.0187
2,AGGACAAT,0.192
3,ATGCATTA,0.265

# As entered above:
# Under PBM E-score, AGCTAAGG reads -0.145
# Under PBM E-score, AGTCTGAA reads 0.134
# Under PBM E-score, ACCTACCT reads -0.111
# Under PBM E-score, ACGCCTTG reads -0.0703
# Under PBM E-score, GGTGTCGA reads 0.104

# (further entries)

row,Sequence,PBM E-score
1,ACTACGTC,0.0184
2,GATCGTCC,0.0342
3,GAATGGGA,-0.139
4,ATATCTTC,0.134
5,CTTGCCCC,-0.262
6,TTGTTAAA,-0.197
7,CATAATCC,-0.0234
8,AGAACAGG,-0.167
9,GCGCAGTA,0.149
10,AAGCACCC,-0.185
11,CACGGTTC,-0.0957
12,CCGAATTA,-0.0568
13,GAGTGTAA,-0.18
14,AGGGAACC,-0.0448
15,CGATCCTA,-0.0226
16,GAGCTCGC,0.128
17,ACAACGCG,0.181
18,AAGGCGGC,-0.0607
19,AGGGCAAT,-0.0502
20,AAGGAAAA,0.0961
21,CCAGTATC,-0.0989
22,CTATGCGA,-0.0106
23,CCTTGAGA,0.118
24,ACATAGTA,0.0314
25,AACTTAAT,0.231

row,Sequence,PBM E-score
1,AACATATG,0.0974
2,CCAATCAA,0.0672
3,AGGGTAAA,0.0843
4,CCCGTGCG,0.0189
5,GGCTAGCA,-0.135
6,ACCAGATC,-0.0746
7,CATGACCA,0.0406
8,ATAATCAT,0.252
9,AGACGCGG,0.0502
10,GGGAATGA,0.0568
11,GAGGTGCC,-0.035
12,GCCACTTA,0.0292
13,ATCTATTG,-0.125
14,TACGACTA,-0.0114
15,CAGCATAC,-0.0347
16,CCCCACTA,-0.235
17,CAGAGCTC,-0.111
18,GCACCAAC,0.0419
19,GCGCGACA,0.063
20,ACGGGCTC,-0.343
21,AGGCACAA,-0.186
22,AGAGATCT,-0.121
23,GAACCGTC,0.0099
24,GAGTTACC,-0.0592
25,ACGGTTCA,-0.195

row,Sequence,PBM E-score
1,CAAATTGA,-0.121
2,AAGCCTCT,-0.188
3,AAGGTGAG,-0.192
4,AAGCTGCA,0.0246
5,TACGAACA,0.135
6,CGGAAGAA,-0.115
7,CTACTGCC,-0.162
8,GCCCTTGA,-0.0525
9,CAACCTCA,-0.0901
10,ACGCTAGT,-0.092
11,CGGTGGCC,-0.0627
12,AAAAACTG,-0.156
13,CGGCAGGA,-0.0676
14,GAGGCTAA,0.0414
15,CCCGCAAC,0.112
16,TAGATGAA,-0.00205
17,GCACACCC,-0.145
18,CTACGCCA,-0.255
19,CCGAAGTC,0.0614
20,TGCATCCA,0.164
21,TCAGGGCA,-0.0323
22,ACTACGCT,-0.0695
